Test in all cases: fluorescence polarisation
In general terms: In fluorescence polarisation assays a small probe gives low polarisation when free and higher when bound to something large.

The chains behind the UniProt entries cited, without tags or fusion partners. Where a name states a change or a piece, a line headed by the entry shows the natural chain unless it says otherwise. A line that says so, or that is headed by a name, gives the form on record, which may keep a tag or linker. Residues count along the entry.
BiP (P20029, residues 20-655): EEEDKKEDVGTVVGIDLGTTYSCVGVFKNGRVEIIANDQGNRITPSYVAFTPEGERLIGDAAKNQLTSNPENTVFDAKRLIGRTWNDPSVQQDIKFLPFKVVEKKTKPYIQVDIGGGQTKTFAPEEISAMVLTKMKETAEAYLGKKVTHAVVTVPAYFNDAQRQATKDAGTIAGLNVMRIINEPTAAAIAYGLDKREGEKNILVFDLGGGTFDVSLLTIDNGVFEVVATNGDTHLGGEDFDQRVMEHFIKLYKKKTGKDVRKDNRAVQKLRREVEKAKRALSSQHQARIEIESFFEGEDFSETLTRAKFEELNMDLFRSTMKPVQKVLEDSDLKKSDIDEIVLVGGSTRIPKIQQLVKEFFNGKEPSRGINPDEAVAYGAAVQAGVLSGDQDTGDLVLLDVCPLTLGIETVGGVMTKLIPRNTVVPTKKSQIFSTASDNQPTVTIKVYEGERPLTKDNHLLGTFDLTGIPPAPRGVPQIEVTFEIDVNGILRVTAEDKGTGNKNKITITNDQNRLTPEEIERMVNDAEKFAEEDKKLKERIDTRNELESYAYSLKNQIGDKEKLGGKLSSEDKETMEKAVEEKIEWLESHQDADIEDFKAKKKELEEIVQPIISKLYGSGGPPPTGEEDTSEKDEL
FITC-labeled BiP D27C (P20029, form named): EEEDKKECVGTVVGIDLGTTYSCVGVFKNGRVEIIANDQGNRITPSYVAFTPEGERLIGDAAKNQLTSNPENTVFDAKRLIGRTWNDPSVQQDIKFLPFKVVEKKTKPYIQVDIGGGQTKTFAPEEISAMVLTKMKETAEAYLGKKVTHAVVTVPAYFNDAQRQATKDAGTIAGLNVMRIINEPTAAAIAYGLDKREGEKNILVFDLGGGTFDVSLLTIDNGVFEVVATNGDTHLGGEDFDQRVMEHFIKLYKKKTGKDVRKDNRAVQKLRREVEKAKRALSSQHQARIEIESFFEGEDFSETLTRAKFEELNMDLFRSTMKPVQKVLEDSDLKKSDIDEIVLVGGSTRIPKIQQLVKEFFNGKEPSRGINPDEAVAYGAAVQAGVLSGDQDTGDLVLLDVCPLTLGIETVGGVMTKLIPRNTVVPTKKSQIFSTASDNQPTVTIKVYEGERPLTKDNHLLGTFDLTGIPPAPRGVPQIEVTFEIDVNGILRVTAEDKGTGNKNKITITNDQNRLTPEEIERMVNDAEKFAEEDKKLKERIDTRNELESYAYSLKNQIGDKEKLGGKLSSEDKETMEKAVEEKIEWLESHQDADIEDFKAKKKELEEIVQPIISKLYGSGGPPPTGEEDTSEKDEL
UniProt P02769, residues 25-607: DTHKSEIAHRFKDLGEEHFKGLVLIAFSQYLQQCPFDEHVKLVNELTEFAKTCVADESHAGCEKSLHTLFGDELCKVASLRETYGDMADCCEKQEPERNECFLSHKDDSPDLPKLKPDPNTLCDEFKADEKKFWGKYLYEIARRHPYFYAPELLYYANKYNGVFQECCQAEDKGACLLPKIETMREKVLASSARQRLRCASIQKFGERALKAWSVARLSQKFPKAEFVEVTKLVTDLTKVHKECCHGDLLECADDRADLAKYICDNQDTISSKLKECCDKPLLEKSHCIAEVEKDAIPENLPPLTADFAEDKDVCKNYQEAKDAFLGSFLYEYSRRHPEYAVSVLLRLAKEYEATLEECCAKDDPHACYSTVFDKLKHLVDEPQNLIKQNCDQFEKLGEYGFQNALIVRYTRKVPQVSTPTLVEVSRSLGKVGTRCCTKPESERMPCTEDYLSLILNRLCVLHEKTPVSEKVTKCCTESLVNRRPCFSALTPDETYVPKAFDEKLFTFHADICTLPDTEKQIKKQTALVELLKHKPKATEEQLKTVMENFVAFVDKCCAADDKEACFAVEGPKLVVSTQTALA
UniProt P08113, residues 22-802: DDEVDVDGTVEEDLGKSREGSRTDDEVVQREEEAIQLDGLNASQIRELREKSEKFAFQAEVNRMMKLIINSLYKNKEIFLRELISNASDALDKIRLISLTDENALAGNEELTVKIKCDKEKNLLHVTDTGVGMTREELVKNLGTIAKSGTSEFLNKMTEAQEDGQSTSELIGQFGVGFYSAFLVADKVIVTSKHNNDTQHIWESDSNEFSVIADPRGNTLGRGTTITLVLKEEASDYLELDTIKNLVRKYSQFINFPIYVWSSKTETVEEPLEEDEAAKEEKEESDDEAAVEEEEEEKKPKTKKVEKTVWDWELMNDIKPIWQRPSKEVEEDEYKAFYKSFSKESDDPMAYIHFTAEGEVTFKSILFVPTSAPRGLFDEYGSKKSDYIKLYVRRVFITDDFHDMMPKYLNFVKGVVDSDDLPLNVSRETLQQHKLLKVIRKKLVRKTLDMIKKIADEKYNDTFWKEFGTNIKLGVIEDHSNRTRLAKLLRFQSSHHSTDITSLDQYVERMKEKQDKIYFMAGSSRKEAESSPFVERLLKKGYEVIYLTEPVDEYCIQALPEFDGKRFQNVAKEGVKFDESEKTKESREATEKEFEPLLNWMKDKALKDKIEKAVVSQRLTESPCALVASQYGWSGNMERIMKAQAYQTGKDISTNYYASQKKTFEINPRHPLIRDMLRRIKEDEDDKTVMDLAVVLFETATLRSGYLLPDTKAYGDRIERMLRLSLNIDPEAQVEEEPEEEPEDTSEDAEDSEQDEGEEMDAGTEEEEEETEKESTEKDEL

Test [1] has as its target FITC-E-peptide 151-169 (Mus musculus) (UniProt P09535).
Test [2] concerns the target FITC-E-peptide 121-139 (Mus musculus) (UniProt P09535).
Test [3] has as its target FITC-labeled BiP D27C (UniProt P20029).
Test [4] has the same target. This is another data set of the same source.
In test [5] the target is T1, FITC-E-peptide 92-120 (Mus musculus) (UniProt P09535).
T1 sequence (chain, FITC-maleimide on the cysteine at 95 (S95C)): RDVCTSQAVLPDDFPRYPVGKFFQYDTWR

Test [6] has as its target T2, FITC-E-peptide 103-120 (Mus musculus) (UniProt P09535).
T2 sequence (peptide, FITC on the N-terminus via an amino hexanoic acid linker): DDFPRYPVGKFFQYDTWR

The target of test [7] is T3, FITC-E-peptide 92-139 (Mus musculus) (UniProt P09535).
T3 sequence (chain, FITC-maleimide on the cysteine at 95 (S95C)): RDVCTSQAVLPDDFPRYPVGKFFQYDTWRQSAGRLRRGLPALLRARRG

Test [8] has as its target FITC-E-peptide 151-169 (Mus musculus) (UniProt P09535). This is another data set of the same source.
Test [9] has as its target FITC-E-peptide 121-139 (Mus musculus) (UniProt P09535). The source holds these as a separate data set.
Test [10] has the same target. This is another data set of the same source.
Test [11] concerns the target BiP (UniProt P20029).
The target of test [12] is T2, FITC-E-peptide 103-120 (Mus musculus). The source holds these as a separate data set.

Read-outs that look alike come from different tables or passages of the source. No constants are given. Whether binding was seen depends on the method and setting. Some results given as binding are weak or reduced against the parent protein; the word gives no strength.

In the case of BSA (from UniProt P02769 25-607), the binding result in test [1] and in [2] was “no binding” throughout.

On to proIGF2 (from UniProt P09535 25-180), for which the binding result in [3] and in test [4] was “binds” throughout.

For BiP (from UniProt P20029 20-655), the binding entry is reported as “binds” in [5]; “binds weakly” in test [6]; “binds” in test [7]; “binds weakly” in [1]; “binds weakly” in [2]; “binds weakly” in test [8]. Further, the binding result is on record as “binds weakly” in test [9] and “binds” in test [10].

For the molecule Grp94 (from UniProt P08113 22-802), the binding result in [6], in [1] and in test [2] was “binds weakly” each time.

For RDVCTSQAVLPDDFPRYPVGKFFQYDTWR (domain or fragment, UniProt P09535 92-120) [extended site 1 (competitor in the displacement experiment)], the binding result in test [11] was “binds”.

In the case of DDFPRYPVGKFFQYDTWR (peptide, UniProt P09535 103-120, FITC on the N-terminus via an amino hexanoic acid linker) [FITC-E-peptide 103-120], in [12], the binding result is “no binding (tested: 50 nM)”.

For the origin of these results see article doi:10.1101/2021.10.11.463904 (bioRxiv, 2021).
